Measured values published in the supplement of paper PMC7830784.
Structures can show the parent of a compound that is named as a salt. The list shows a part of the results. Single values are uncertain here, since repeats match poorly.

tested on: Brugia pahangi adult female; assay: motility inhibition on day 3 relative to DMSO vehicle; higher = more active; conditions: 10 µM; 3 days

| Structure (SMILES) | motility inhibition on day 3 |
| --- | --- |
| CCOP(=S)(OCC)Oc1cc(C)nc(C(C)C)n1 [diazinon] | 8.99% |
| CNC(C)(C)Cc1ccccc1 [mephentermine sulfate] | 2.87% |
| C[C@]12CCC(=O)C(O)=C1CC[C@@H]1[C@@H]2CC[C@]2(C)C(=O)CC[C@@H]12 [formestane] | 8.6% |
| CC(C)C[C@H]1C(=O)N2CCC[C@H]2[C@]2(O)O[C@](NC(=O)[C@@H]3C=C4c5cccc6[nH]c(Br)c(c56)C[C@H]4N(C)C3)(C(C)C)C(=O)N12 [bromocriptine mesylate] | 45.8% |
| C[C@]12CCC(=O)C=C1CC[C@@H]1[C@@H]2CC[C@@]2(C)[C@H]1CC[C@]2(C)O [Methyltestosterone] | < 0% |
| CN1[C@@H]2CC[C@H]1C[C@@H](OC(=O)C(CO)c1ccccc1)C2 (stereo partly specified) [Atropine sulfate] | 11% |
| CNCC(O)c1ccc(O)cc1 (stereo unspecified) [oxedrine] | < 0% |
| CC(=O)NC1CCSC1=O (stereo unspecified) [citiolone] | 0.0165% |
| CCNC(C)Cc1cccc(C(F)(F)F)c1 (racemic) [(±)-Fenfluramine hydrochloride] | 7.09% |
| CCN(CC)CCN1C(=O)CN=C(c2ccccc2F)c2cc(Cl)ccc21 [Flurazepam dihydrochloride] | 10.9% |
| CNC(=O)Oc1ccccc1OC(C)C [propoxur] | 0.78% |
| C[C@]12COC(=O)C[C@@H]1CC[C@@H]1[C@@H]2CC[C@@]2(C)[C@H]1CC[C@]2(C)O [Oxandrolone] | 6.19% |
| c1ccc2c(c1)sc1ccccc12 [dibenzothiophene] | 10.8% |
| O=P1(N(CCCl)CCCl)NCCCO1 (stereo unspecified) [cyclophosphamide hydrate] | 16.9% |
| CCOP(=S)(OCC)Oc1nc(Cl)c(Cl)cc1Cl [chlorpyrifos] | 1.58% |
| C=CCC1(C(C)CCC)C(=O)NC(=S)NC1=O (stereo unspecified) [thiamylal sodium] | 21.2% |
| CCCCCCCCCCCCCCCC[n+]1ccccc1 [cetylpyridinium chloride] | 93.7% |
| CCOc1cc(C=O)ccc1O [ethyl vanillin] | 9.56% |
| C=C1C[C@@H]2[C@H](CC[C@]3(C)C(=O)CC[C@@H]23)[C@@]2(C)C=CC(=O)C=C12 | < 0% |
| C=C1C[C@@H]2[C@H](CC[C@]3(C)C(=O)CC[C@@H]23)[C@@]2(C)C=CC(=O)C=C12 [exemestane] | < 0% |
| CCOP(=S)(OCC)Oc1ccc2c(C)c(Cl)c(=O)oc2c1 [coumophos] | 16.6% |
| CN1C(=O)CN=C(c2ccccc2F)c2cc([N+](=O)[O-])ccc21 [Flunitrazepam] | 16.6% |
| CCC1(CC)C(=O)NC(=O)N(C)C1=O [Metharbital] | 38.9% |

In another format: entries from further up.
Structure (SMILES)	motility inhibition on day 3
CCN(CC)CCN1C(=O)CN=C(c2ccccc2F)c2cc(Cl)ccc21 [Flurazepam dihydrochloride]	10.9%
CNC(=O)Oc1ccccc1OC(C)C [propoxur]	0.78%

(next part)

| Structure (SMILES) | motility inhibition on day 3 |
| --- | --- |
| CNC(C)Cc1ccccc1 (single isomer, unassigned; (+)) [(+)-Methamphetamine hydrochloride] | 22.6% |
| N[C@@H]1C[C@H]1c1ccccc1.N[C@H]1C[C@@H]1c1ccccc1 [Tranylcypromine HCl  (Sigma)] | 17.8% |
| N[C@@H]1C[C@H]1c1ccccc1.N[C@H]1C[C@@H]1c1ccccc1 [tranylcypromine] | 87.1% |
| N[C@@H]1C[C@H]1c1ccccc1.N[C@H]1C[C@@H]1c1ccccc1 [tranylcypromine sulfate] | 11.3% |
| C#CC(C)(O)CC (stereo unspecified) [meparfylon] | < 0% |
| C[N+]1(C)CCCC(OC(=O)C(O)(c2ccccc2)c2ccccc2)C1 (stereo unspecified) [mepenzolate bromide] | 30.4% |
| COC(C)(C)CCC[C@H](C)C/C=C/C(C)=C/C(=O)OC(C)C [methoprene (s)] | < 0% |
| CN1C(=O)CC(=O)N(c2ccccc2)c2cc(Cl)ccc21 [Clobazam] | 32.4% |
| CCCC(C)(COC(N)=O)COC(=O)NC(C)C (stereo unspecified) [Carisoprodol] | 48.2% |
| Cl[C@H]1[C@H](Cl)[C@@H](Cl)[C@@H](Cl)[C@H](Cl)[C@H]1Cl [lindane] | 29.4% |
| Oc1ccc(Cl)cc1Cc1cc(Cl)ccc1O [dichlorophene] | 99.9% |
| CC(O)CN1CCN(CC(=O)[O-])CCN(CC(=O)[O-])CCN(CC(=O)[O-])CC1.[Gd+3] (stereo unspecified) [gadoteridol] | 12.4% |
| COc1ccc(OC)c(C(O)C(C)N)c1 (stereo unspecified) [Methoxamine hydrochloride] | 33.2% |
| CCC(=O)O[C@H]1CC[C@H]2[C@@H]3CCC4=CC(=O)CC[C@]4(C)[C@H]3CC[C@]12C [testosterone propionate] | 3.91% |
| C[C@@H]1CN([C@H]2CC[C@](C#N)(c3ccc(F)cc3)CC2)CC[C@]1(C(=O)O)c1ccccc1 [Levocabastine??HCl] | 14.4% |
| CCC1(CC)C(=O)NC(=O)NC1=O [barbital] | 8.41% |
| O=C1CCO1 [beta-propiolactone] | 44.4% |
| O=c1[nH]oc2c1CCNC2 [THIP hydrochloride] | 5.16% |
| CCC1(C2=NCCN2)Cc2ccccc2O1 (stereo unspecified) [efaroxan] | 22.4% |
| CC[C@@H](CO)NC(=O)[C@@H]1C=C2c3cccc4[nH]cc(c34)C[C@H]2N(C)C1 [methylergonovine maleate] | 30.8% |
| CCCCOC(=O)c1ccccc1C(=O)OCCCC [dibutyl phthalate] | < 0% |
| Cc1cc(C(C#N)c2ccc(Cl)cc2)c(Cl)cc1NC(=O)c1cc(I)cc(I)c1O (stereo unspecified) [closantel] | 0.459% |
| O=C(O)c1nn(Cc2ccc(Cl)cc2Cl)c2ccccc12 [lonidamine] | 5.28% |
